We go through two molecules from PMC10702427, “Effects of Dimerization on the Deacylase Activities of Human SIRT2” (Biochemistry, 2023).

Substitutions are numbered along the chain they refer to. Names and notes keep the numbering of the source. No constants are given. Whether binding was seen depends on the method and setting. Binding seen in cells or lysates may run through a third protein. Some binding calls cover weakened binding; strength is not graded here. Tags and fused reporters may be left off the sequences shown.

Assay [1] deals with T1, full-length SIRT2 fused to split GFP fragments (two co-expressed constructs) (human), Q8IXJ6.
T1 chain: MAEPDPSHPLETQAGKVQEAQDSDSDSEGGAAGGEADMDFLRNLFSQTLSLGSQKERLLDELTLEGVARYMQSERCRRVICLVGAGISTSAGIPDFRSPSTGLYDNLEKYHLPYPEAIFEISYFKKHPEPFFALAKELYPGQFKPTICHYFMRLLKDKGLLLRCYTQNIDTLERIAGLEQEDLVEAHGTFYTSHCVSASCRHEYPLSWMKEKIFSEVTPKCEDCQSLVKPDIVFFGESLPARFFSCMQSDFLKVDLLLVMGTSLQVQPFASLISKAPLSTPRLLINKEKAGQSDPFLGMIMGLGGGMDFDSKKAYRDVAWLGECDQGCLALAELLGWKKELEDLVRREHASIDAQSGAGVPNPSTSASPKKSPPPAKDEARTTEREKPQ
Nature of the assay: split reporter; split GFP; two full-length SIRT2 fusions cotransfected in A549 cells, fixed 48 h after transfection, GFP/DAPI fluorescence; also 6 h with 200 μM ascorbyl palmitate or 0.2% DMSO. Conditions: remark: other sources report otherwise.

Assay [2] concerns the target full-length SIRT2(Q142A/E340A) fused to split GFP fragments (two co-expressed constructs) (human) (UniProt Q8IXJ6). Described as above.

B1: full-length SIRT2 fused to split GFP fragments (two co-expressed constructs), Q8IXJ6-1 1-389 (enzyme)
chain: T1 chain
On to B1, for which the binding entry in assay [1] is “binds”.

B2: full-length SIRT2(Q142A/E340A) fused to split GFP fragments (two co-expressed constructs) (enzyme, UniProt Q8IXJ6-1 1-389)
chain: T1 chain with Q142A, E340A
As to B2, in assay [2], the binding entry is “no binding”.
